Data published in patent US20070014761A1.
Results are given in words; binding and its absence hold for the method and conditions named. Binding seen in cells or lysates may run through a third protein. Some binding calls cover weakened binding; strength is not graded here. Sequences can lack the tags named with a protein.

Chains of the proteins cited; added tags and fusions are not shown. Lines headed by an entry give the natural chain unless they say otherwise; changes in a name come on top.
UniProt Q9NPF7: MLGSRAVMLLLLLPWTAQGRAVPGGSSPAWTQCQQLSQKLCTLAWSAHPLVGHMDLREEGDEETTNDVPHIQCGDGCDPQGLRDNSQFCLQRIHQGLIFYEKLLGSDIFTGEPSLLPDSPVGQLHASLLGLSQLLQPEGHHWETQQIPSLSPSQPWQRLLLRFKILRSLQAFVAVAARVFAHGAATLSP

Columns and labels:
[1] = molecular target: IL23A-Chis (human) (UniProt Q9NPF7); assay: co-immunoprecipitation, western blot
[2] = molecular target: IL23A-Chis (human) (UniProt Q9NPF7); assay: co-immunoprecipitation from conditioned medium of co-transfected 293T cells (Ni NTA-agarose pulls down zsig81-Cflag; anti-FLAG-agarose captures IL23A-Chis), western blot

B1: zsig81-Cflag (ligand)
chain: SMCHRWSRAVLFPAAHRPKRSSSLPLNPVLQTSLEEVELLYEFLLAELEISPDLQISIKDEELASLRKASDFRTVCNNVIPKSIPDIRRLSASLSSHPGILKKEDFERTVLTLAYTAYRTALSHGHQKDIWAQSLVSLFQALRHDLMRSSQPGVPPDYKDDDDK
In the case of B1, the binding [1] is reported as “binds” and the binding [2] is reported as “binds”.
